{"source": "patent US8183210B2", "about": "(Chiesi Farmaceutici S.p.A., priority 2006, dated 2012)", "assay": "general procedure: Fmoc solid-phase peptide synthesis", "conditions": "whole synthesis, acetate, several disulfide bridges, sequence written open", "note": "End groups of sequences in plain letters are not given here.", "data": [{"sequence": "CLLCRALIKRIQALIPKGGRLLPQLVCRLVLRCS", "values": [{"measurement": "final purity (method not given)", "result": ">89", "unit": "%"}, {"measurement": "isolated yield", "result": 1.7, "unit": "%"}]}]}
